# Assay results published in the supplement of paper PMC8728848.
# Some of the results follow.
# B1: PX9961K-bvu-480-28-480 (Bacteroides vulgatus) (protein)
# chain: NKIPTTMAFRTVTDVDNAVNGLYDLMSGSGYYGAAMFAYGDMKGDDMQSSEESGVCNTCYMFNHRPNSLNAGSLWGRPFYILREAWNILNAIAEGKIESGDEKKLNALKGETMAVIALCQFDLTRCFGYPYTKDKGASLGAPLIDHLVGTYENPPRSTVAQAYDFIIETLEEAVTLMSEEKNNGRMNKYAARALLARIYLYHDDNRKAFDLADQLIKDADTSGSYALYPHEKYVAAWSVEAKFGSESFFEIANSVDDTPGRDSWGYLLNWYGYQKGFVTQKYAEQMLADPGDVRGHLLEENKYAGKTVWWLYKLRGTDLKTAPLECNNVVLRLSEVYLIAAEAGCKLGGDAAVQGLGYLNEIVKRGNPDNEVTMADYTLDRVLDERSKELVGEGHRFFDLLRNGKTIVRKGGYHLPSVDEEVDWDFYKCVLPIPEDQFIFSPEMEQNPGYPKN
# Key:
# Experiment in all cases: glycan array binding signal (z-score within array); higher = stronger binding
# Conditions in all cases: glycan notation: IUPAC condensed, linker removed
# [1] = target: Gal(b1-4)GlcNAc(b1-3)Gal(b1-4)GlcNAc(b1-6)[Gal(b1-3)]GalNAc
# Procedure, shortened: (§1)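 The Consortium for Functional Glycomics database supplied 3228 glycan arrays, of which those lacking an available protein sequence were dropped. The binding signal, a within-array Z-score, was averaged across arrays of the same protein sequence and across linkers. Negative scores can be read as non-binding.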
# [2] = target: Gal(b1-4)GlcNAc(b1-3)Gal(b1-4)[Fuc(a1-3)]GlcNAc(b1-3)Gal(b1-4)[Fuc(a1-3)]GlcNAc
# Procedure, shortened: as §1
# [3] = target: Gal(b1-4)GlcNAc(b1-3)GalNAc
# Procedure, shortened: as §1
# [4] = target: Gal(b1-4)GlcNAc(b1-3)[Fuc(a1-3)GlcNAc(b1-6)]Gal(b1-4)Glc
# Procedure, shortened: as §1
# [5] = target: Gal(b1-4)GlcNAc(b1-3)[Gal(b1-4)GlcNAc(b1-6)]Gal(b1-4)GlcNAc
# Procedure, shortened: as §1
# [6] = target: Gal(b1-4)GlcNAc(b1-3)[GlcNAc(b1-6)]Gal(b1-4)GlcNAc
# Procedure, shortened: as §1
# [7] = target: Gal(b1-4)GlcNAc(b1-6)Gal(b1-4)GlcNAc
# Procedure, shortened: as §1
# [8] = target: Gal(b1-4)GlcNAc(b1-6)GalNAc
# Procedure, shortened: as §1
# [9] = target: Gal(b1-4)GlcNAc(b1-6)[Gal(b1-3)]GalNAc
# Procedure, shortened: as §1
# [10] = target: Gal(b1-4)GlcNAc(b1-6)[Gal(b1-4)GlcNAc(b1-3)]GalNAc
# Procedure, shortened: as §1
# [11] = target: Gal(b1-4)GlcNAc6P
# Procedure, shortened: as §1
# [12] = target: Gal(b1-6)Gal
# Procedure, shortened: as §1
# [13] = target: Gal3S(b1-3)GalNAc
# Procedure, shortened: as §1
# [14] = target: Gal3S(b1-3)GlcNAc
# Procedure, shortened: as §1
# [15] = target: Gal3S(b1-3)[Fuc(a1-4)]GlcNAc
# Procedure, shortened: as §1
# [16] = target: Gal3S(b1-4)Glc
# Procedure, shortened: as §1
# [17] = target: Gal3S(b1-4)Glc6S
# Procedure, shortened: as §1
# [18] = target: Gal3S(b1-4)GlcNAc
# Procedure, shortened: as §1
# [19] = target: Gal3S(b1-4)[Fuc(a1-3)]Glc6S
# Procedure, shortened: as §1
# [20] = target: Gal3S(b1-4)[Fuc(a1-3)]GlcNAc
# Procedure, shortened: as §1
# [21] = target: Gal3S(b1-4)[Fuc(a1-3)]GlcNAc6S
# Procedure, shortened: as §1
# [22] = target: Gal3S4S(b1-4)GlcNAc
# Procedure, shortened: as §1
# [23] = target: Gal3S6S(b1-4)GlcNAc
# Procedure, shortened: as §1
# [24] = target: Gal3S6S(b1-4)GlcNAc6S
# Procedure, shortened: as §1
# [25] = target: Gal4S(b1-4)GlcNAc
# Procedure, shortened: as §1
# [26] = target: Gal4S6S(b1-4)GlcNAc
# Procedure, shortened: as §1
# [27] = target: Gal6P(b1-4)GlcNAc
# Procedure, shortened: as §1
# [28] = target: Gal6S(b1-3)GlcNAc
# Procedure, shortened: as §1
# [29] = target: Gal6S(b1-3)GlcNAc6S
# Procedure, shortened: as §1
# [30] = target: Gal6S(b1-4)Glc
# Procedure, shortened: as §1
# [31] = target: Gal6S(b1-4)Glc6S
# Procedure, shortened: as §1
# [32] = target: Gal6S(b1-4)GlcNAc
# Procedure, shortened: as §1
# [33] = target: Gal6S(b1-4)GlcNAc6S
# Procedure, shortened: as §1
# [34] = target: GalNAc(a1-3)Gal
# Procedure, shortened: as §1
# [35] = target: GalNAc(a1-3)GalNAc
# Procedure, shortened: as §1
# [36] = target: GalNAc(a1-3)GalNAc(b1-3)Gal(a1-4)Gal(b1-4)Glc
# Procedure, shortened: as §1
# [37] = target: GalNAc(a1-3)GalNAc(b1-3)Gal(a1-4)Gal(b1-4)GlcNAc
# Procedure, shortened: as §1
# [38] = target: GalNAc(b1-3)Gal
# Procedure, shortened: as §1
# [39] = target: GalNAc(b1-3)Gal(a1-4)Gal(b1-4)GlcNAc
# Procedure, shortened: as §1
# [40] = target: GalNAc(b1-3)Gal(a1-4)Gal(b1-4)GlcNAc(b1-3)Gal(b1-4)Glc
# Procedure, shortened: as §1
# [41] = target: GalNAc(b1-3)Gal(a1-6)Gal(b1-4)Glc
# Procedure, shortened: as §1
# [42] = target: GalNAc(b1-3)GalNAc
# Procedure, shortened: as §1
# [43] = target: GalNAc(b1-3)GlcNAc
# Procedure, shortened: as §1
# [44] = target: GalNAc(b1-4)Gal(b1-4)Glc
# Procedure, shortened: as §1
# [45] = target: GalNAc(b1-4)GlcNAc
# Procedure, shortened: as §1
# [46] = target: GalNAc(b1-4)GlcNAc(b1-2)Man
# Procedure, shortened: as §1
# [47] = target: GalNAc(b1-4)GlcNAc(b1-2)Man(a1-3)[GalNAc(b1-4)GlcNAc(b1-2)Man(a1-6)]Man(b1-4)GlcNAc(b1-4)GlcNAc
# Procedure, shortened: as §1
# [48] = target: GalNAc(b1-4)GlcNAc(b1-3)GalNAc(b1-4)GlcNAc
# Procedure, shortened: as §1
# [49] = target: GalNAc(b1-4)GlcNAc6S
# Procedure, shortened: as §1
# [50] = target: GalNAc(b1-6)GalNAc
# Procedure, shortened: as §1
# [51] = target: GalNAc3S(b1-4)GlcNAc
# Procedure, shortened: as §1
# [52] = target: GalNAc3S(b1-4)GlcNAc3S
# Procedure, shortened: as §1
# [53] = target: GalNAc3S(b1-4)[Fuc(a1-3)]GlcNAc
# Procedure, shortened: as §1
# [54] = target: GalNAc4S6S(b1-4)GlcNAc
# Procedure, shortened: as §1
# [55] = target: GalNAc6S(b1-4)GlcNAc
# Procedure, shortened: as §1
# [56] = target: Glc(a1-4)Glc
# Procedure, shortened: as §1
# [57] = target: Glc(a1-4)Glc(a1-4)Glc(a1-4)Glc
# Procedure, shortened: as §1
# [58] = target: Glc(a1-6)Glc(a1-6)Glc
# Procedure, shortened: as §1
# [59] = target: Glc(a1-6)Glc(a1-6)Glc(a1-6)Glc
# Procedure, shortened: as §1
# [60] = target: Glc(b1-4)Glc
# Procedure, shortened: as §1
# [61] = target: Glc(b1-6)Glc
# Procedure, shortened: as §1
# [62] = target: GlcA(b1-3)Gal
# Procedure, shortened: as §1
# [63] = target: GlcA(b1-3)GlcNAc
# Procedure, shortened: as §1
# [64] = target: GlcA(b1-6)Gal
# Procedure, shortened: as §1
# [65] = target: GlcA3S(b1-3)Gal(b1-4)GlcNAc(b1-2)Man
# Procedure, shortened: as §1
# [66] = target: GlcA3S(b1-3)Gal(b1-4)GlcNAc(b1-3)Gal(b1-4)Glc
# Procedure, shortened: as §1
# [67] = target: GlcNAc(a1-3)Gal(b1-4)GlcNAc
# Procedure, shortened: as §1
# [68] = target: GlcNAc(a1-4)Gal(b1-3)GlcNAc
# Procedure, shortened: as §1
# [69] = target: GlcNAc(a1-4)Gal(b1-4)GalNAc
# Procedure, shortened: as §1
# [70] = target: GlcNAc(a1-4)Gal(b1-4)GlcNAc
# Procedure, shortened: as §1
# [71] = target: GlcNAc(a1-4)Gal(b1-4)GlcNAc(b1-3)Gal(b1-4)Glc
# Procedure, shortened: as §1
# [72] = target: GlcNAc(a1-4)Gal(b1-4)GlcNAc(b1-3)Gal(b1-4)GlcNAc
# Procedure, shortened: as §1
# [73] = target: GlcNAc(a1-4)Gal(b1-4)GlcNAc(b1-3)Gal(b1-4)GlcNAc(b1-3)Gal(b1-4)GlcNAc
# Procedure, shortened: as §1
# [74] = target: GlcNAc(a1-4)Gal(b1-4)GlcNAc(b1-3)Gal(b1-4)[Fuc(a1-3)]GlcNAc(b1-3)Gal(b1-4)[Fuc(a1-3)]GlcNAc
# Procedure, shortened: as §1
# [75] = target: GlcNAc(a1-6)Gal(b1-4)GlcNAc
# Procedure, shortened: as §1
binder,measurement,setting,value
B1,glycan array binding signal (z-score),[1],-0.359
same,glycan array binding signal (z-score),[2],-0.616
same,glycan array binding signal (z-score),[3],-0.302
same,glycan array binding signal (z-score),[4],0.569
same,glycan array binding signal (z-score),[5],0.172
same,glycan array binding signal (z-score),[6],-0.506
same,glycan array binding signal (z-score),[7],1.02
same,glycan array binding signal (z-score),[8],-0.045
same,glycan array binding signal (z-score),[9],-0.512
same,glycan array binding signal (z-score),[10],0.145
same,glycan array binding signal (z-score),[11],-0.641
same,glycan array binding signal (z-score),[12],-0.106
same,glycan array binding signal (z-score),[13],-0.743
same,glycan array binding signal (z-score),[14],0.009
same,glycan array binding signal (z-score),[15],-0.609
same,glycan array binding signal (z-score),[16],0.787
same,glycan array binding signal (z-score),[17],0.273
same,glycan array binding signal (z-score),[18],0.927
same,glycan array binding signal (z-score),[19],-0.512
same,glycan array binding signal (z-score),[20],0.835
same,glycan array binding signal (z-score),[21],0.812
same,glycan array binding signal (z-score),[22],0.316
same,glycan array binding signal (z-score),[23],0.512
same,glycan array binding signal (z-score),[24],1.05
same,glycan array binding signal (z-score),[25],0.389
same,glycan array binding signal (z-score),[26],-0.447
same,glycan array binding signal (z-score),[27],0.088
same,glycan array binding signal (z-score),[28],0.36
same,glycan array binding signal (z-score),[29],1.43
same,glycan array binding signal (z-score),[30],0.467
same,glycan array binding signal (z-score),[31],-0.128
same,glycan array binding signal (z-score),[32],-0.106
same,glycan array binding signal (z-score),[33],-0.201
same,glycan array binding signal (z-score),[34],0.087
same,glycan array binding signal (z-score),[35],-0.228
same,glycan array binding signal (z-score),[36],-0.347
same,glycan array binding signal (z-score),[37],0.347
same,glycan array binding signal (z-score),[38],-0.227
same,glycan array binding signal (z-score),[39],-0.475
same,glycan array binding signal (z-score),[40],-0.343
same,glycan array binding signal (z-score),[41],0.677
same,glycan array binding signal (z-score),[42],0.373
same,glycan array binding signal (z-score),[43],0.085
same,glycan array binding signal (z-score),[44],0.362
same,glycan array binding signal (z-score),[45],0.72
same,glycan array binding signal (z-score),[46],0.581
same,glycan array binding signal (z-score),[47],-0.582
same,glycan array binding signal (z-score),[48],-0.336
same,glycan array binding signal (z-score),[49],-0.639
same,glycan array binding signal (z-score),[50],-0.225
same,glycan array binding signal (z-score),[51],-0.27
same,glycan array binding signal (z-score),[52],0.498
same,glycan array binding signal (z-score),[53],-0.094
same,glycan array binding signal (z-score),[54],-0.408
same,glycan array binding signal (z-score),[55],-0.802
same,glycan array binding signal (z-score),[56],-0.283
same,glycan array binding signal (z-score),[57],-0.305
same,glycan array binding signal (z-score),[58],-0.638
same,glycan array binding signal (z-score),[59],-0.777
same,glycan array binding signal (z-score),[60],-0.946
same,glycan array binding signal (z-score),[61],0.029
same,glycan array binding signal (z-score),[62],-0.115
same,glycan array binding signal (z-score),[63],0.396
same,glycan array binding signal (z-score),[64],0.055
same,glycan array binding signal (z-score),[65],0.105
same,glycan array binding signal (z-score),[66],-0.255
same,glycan array binding signal (z-score),[67],0.21
same,glycan array binding signal (z-score),[68],-1.15
same,glycan array binding signal (z-score),[69],0.018
same,glycan array binding signal (z-score),[70],-0.571
same,glycan array binding signal (z-score),[71],-0.35
same,glycan array binding signal (z-score),[72],-0.127
same,glycan array binding signal (z-score),[73],-0.73
same,glycan array binding signal (z-score),[74],-0.338
same,glycan array binding signal (z-score),[75],-0.068
